From paper PMC3532599, “Structural and Functional Integration of the PLCγ Interaction Domains Critical for Regulatory Mechanisms and Signaling Deregulation” (Structure(London, England:1993), 2012) come the findings set out here.

The target in assay [1] is T1, PLCγ1 cSH2 domain, wild type (human).
T1 sequence (P19174 whole entry, looked up): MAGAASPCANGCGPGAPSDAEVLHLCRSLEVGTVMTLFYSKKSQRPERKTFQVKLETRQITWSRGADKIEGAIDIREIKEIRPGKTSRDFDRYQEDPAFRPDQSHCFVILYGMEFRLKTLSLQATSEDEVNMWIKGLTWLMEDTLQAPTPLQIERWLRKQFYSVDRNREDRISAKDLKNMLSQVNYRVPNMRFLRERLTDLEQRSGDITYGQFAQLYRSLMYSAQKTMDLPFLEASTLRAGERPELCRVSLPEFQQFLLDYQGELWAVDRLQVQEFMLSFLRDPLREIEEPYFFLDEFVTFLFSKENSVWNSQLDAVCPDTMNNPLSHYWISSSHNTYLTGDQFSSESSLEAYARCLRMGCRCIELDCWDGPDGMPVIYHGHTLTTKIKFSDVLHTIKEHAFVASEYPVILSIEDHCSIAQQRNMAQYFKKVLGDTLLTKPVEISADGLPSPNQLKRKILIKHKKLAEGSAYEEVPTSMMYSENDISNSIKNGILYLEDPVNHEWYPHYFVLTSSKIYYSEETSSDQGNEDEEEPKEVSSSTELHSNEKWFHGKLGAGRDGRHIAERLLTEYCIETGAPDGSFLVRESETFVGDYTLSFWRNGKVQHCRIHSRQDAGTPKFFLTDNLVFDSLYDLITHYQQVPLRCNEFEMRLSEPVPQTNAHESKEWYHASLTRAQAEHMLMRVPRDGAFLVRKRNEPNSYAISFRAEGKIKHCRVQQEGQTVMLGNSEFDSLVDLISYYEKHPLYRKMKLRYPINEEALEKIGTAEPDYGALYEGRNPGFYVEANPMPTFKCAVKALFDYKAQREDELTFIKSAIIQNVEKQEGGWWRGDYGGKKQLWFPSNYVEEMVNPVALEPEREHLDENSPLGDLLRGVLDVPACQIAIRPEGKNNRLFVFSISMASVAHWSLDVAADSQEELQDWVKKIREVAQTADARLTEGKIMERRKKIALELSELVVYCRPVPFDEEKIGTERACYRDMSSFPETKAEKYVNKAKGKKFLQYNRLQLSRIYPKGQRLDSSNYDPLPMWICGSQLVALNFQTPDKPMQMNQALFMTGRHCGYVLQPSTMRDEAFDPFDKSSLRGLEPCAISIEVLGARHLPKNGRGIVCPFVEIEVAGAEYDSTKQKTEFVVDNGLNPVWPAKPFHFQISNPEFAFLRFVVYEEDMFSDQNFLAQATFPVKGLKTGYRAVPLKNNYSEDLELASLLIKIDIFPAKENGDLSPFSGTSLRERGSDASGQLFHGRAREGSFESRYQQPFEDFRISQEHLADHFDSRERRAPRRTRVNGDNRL
Kind of assay: NMR titration; binding of phosphopeptides to the SH2 domains of PLCγ1 (Figure S5); 25°C; both purified.

The target of assay [2] is PLCγ1 nSH2 domain (human). Kind of assay: NMR titration; 15N-labelled spPH, nSH2 or cSH2 domain observed by 1H-15N HSQC, unlabelled PLC-core (H335A) added up to 1:1; 25°C; for cSH2 then the phosphopeptide NPGFpYVEANPMP to 1:1:1; both purified.
Assay [3] deals with PLCγ1 split PH (spPH) domain (human). Described as above.

No constants are given. Whether binding was seen depends on the method and setting. For part of these data: Binding calls can cover weak binding; strength is not graded here. For part of these data: Sequences can lack the tags named with a protein.

For the molecule NPGFYVEANPMP (phosphotyrosine at 783 (fifth residue of the peptide)) [PLCγ1-derived phosphopeptide from the cSH2-SH3 linker (779NPGFpYVEANPMP790)], in assay [1], the binding result is “binds”.

B1: PLCγ1 PLC-core (residues 13−1215, Δ488–933, H335A) (domain or fragment, UniProt P19174)
chain: GPGAPSDAEVLHLCRSLEVGTVMTLFYSKKSQRPERKTFQVKLETRQITWSRGADKIEGAIDIREIKEIRPGKTSRDFDRYQEDPAFRPDQSHCFVILYGMEFRLKTLSLQATSEDEVNMWIKGLTWLMEDTLQAPTPLQIERWLRKQFYSVDRNREDRISAKDLKNMLSQVNYRVPNMRFLRERLTDLEQRSGDITYGQFAQLYRSLMYSAQKTMDLPFLEASTLRAGERPELCRVSLPEFQQFLLDYQGELWAVDRLQVQEFMLSFLRDPLREIEEPYFFLDEFVTFLFSKENSVWNSQLDAVCPDTMNNPLSHYWISSSANTYLTGDQFSSESSLEAYARCLRMGCRCIELDCWDGPDGMPVIYHGHTLTTKIKFSDVLHTIKEHAFVASEYPVILSIEDHCSIAQQRNMAQYFKKVLGDTLLTKPVEISADGLPSPNQLKRKILIKHKKLAEGSAYEEVPTSMMYSENDISDARLTEGKIMERRKKIALELSELVVYCRPVPFDEEKIGTERACYRDMSSFPETKAEKYVNKAKGKKFLQYNRLQLSRIYPKGQRLDSSNYDPLPMWICGSQLVALNFQTPDKPMQMNQALFMTGRHCGYVLQPSTMRDEAFDPFDKSSLRGLEPCAISIEVLGARHLPKNGRGIVCPFVEIEVAGAEYDSTKQKTEFVVDNGLNPVWPAKPFHFQISNPEFAFLRFVVYEEDMFSDQNFLAQATFPVKGLKTGYRAVPLKNNYSEDLELASLLIKIDIFPAK
Regarding B1, the binding result in assay [2] and in assay [3] was “no binding” throughout.
